In PMC12431657, “Discovery and mechanistic insights of dibenzoylmethane as a broad spectrum inhibitor of coronavirus” (PLOS Pathogens, 2025):
Counter-ions that a name gives are not always drawn. Like-named read-outs stand apart in the source and are kept apart here. The campaign covered roughly 3,300 compounds. About 60 (2%) showed an effect of 50% or more. The list shows a part of the results.

System: HCoV-OC43
Design: species or system RD; HTS, protection from HCoV-OC43 induced cell death, luminescent cell viability (CellCounting-Lite 2.0), inhibition rate
Conditions: 24 h post infection, 1 h compound pre-incubation, 10 µM, inhibitor

Row | Compound | OC43 Inhibition rate [%] | OC43 Inhibition rate (OC43 Inhibition rate, 24 h) [%]
1 | CC(C)CCC[C@@H](C)[C@H]1CC[C@H]2[C@@H]3CC=C4C[C@@H](O)CC[C@]4(C)[C@H]3CC[C@]12C [Cholesterol] | -3.4 | 
2 | Nc1ccn([C@@H]2O[C@H](CO)[C@@H](O)[C@H]2O)c(=O)n1 [Cytidine] | 0 | 
3 | O=C(/C=C/c1ccccc1)OCc1ccccc1 [Benzyl cinnamate] | 2 | 
4 | N[C@@H](Cc1ccc(O)c(Cl)c1)C(=O)O [3-Chloro-L-tyrosine] | 0.8 | 
5 | CC1(C)O[C@H]2CC(=O)OC[C@]23[C@H]2CC[C@@]4(C)[C@H](c5ccoc5)OC(=O)[C@H]5O[C@]54[C@]2(C)[C@@H](O)C(=O)[C@@H]13 [Rutaevin] | -0.6 | 
6 | COc1cc(O)c2c(c1)O[C@H](c1ccc(O)cc1)CC2=O [Sakuranetin] | 0.3 | 
7 | COc1cc(O)c2c(=O)c(-c3ccc(O)cc3)coc2c1 [Prunetin] | 0.3 | 
8 | C/C=C(/C)C(=O)O[C@H]1[C@H](O)[C@]2(COC(C)=O)[C@H](O)C[C@]3(C)C(=CC[C@@H]4[C@@]5(C)CC[C@H](O[C@@H]6O[C@H](C(=O)O)[C@@H](O[C@@H]7O[C@H](CO)[C@@H](O)[C@H](O)[C@H]7O)[C@H](O)[C@H]6O[C@@H]6O[C@H](CO)[C@@H](O)[C@H](O)[C@H]6O)[C@](C)(CO)[C@@H]5CC[C@]43C)[C@@H]2CC1(C)C [Isoescin IB] | -1.3 | 
9 | COc1cc(/C=C/CO)cc(OC)c1O[C@@H]1O[C@H](CO)[C@@H](O)[C@H](O)[C@H]1O [Syringin] | -0.5 | 
10 | O=C(O)CC(O)(CC(=O)OCc1ccc(O[C@@H]2O[C@H](CO)[C@@H](O)[C@H](O)[C@H]2O)cc1)C(=O)OCc1ccc(O[C@@H]2O[C@H](CO)[C@@H](O)[C@H](O)[C@H]2O)cc1 (stereo partly shown) [Parishin B] | -3.2 | 
11 | CCCCCCCCCCCCCCCCO [1-Hexadecanol] | -0.8 | 
12 | C[C@H](CCC(=O)O)[C@H]1CC[C@H]2[C@@H]3CC[C@@H]4C[C@H](O)CC[C@]4(C)[C@H]3C[C@@H](O)[C@]12C [3α,12β-Dihydroxycholanoic acid] | 0.4 | 
13 | O=C(O)c1ccnc2ccccc12 [NSC 13138] | -0.7 | 
14 | NCC(N)C(=O)O (stereo not shown) [2,3-Diaminopropanoic acid hydrochloride] | -1.2 | 
15 | CCCCC[C@H](CC(=O)NO)C(=O)N[C@H](C(=O)N1CCC[C@H]1CO)C(C)C [Actinonin] | -0.9 | 
16 | OC[C@H]1O[C@@](CO)(OC[C@@]2(OC[C@@]3(OC[C@@]4(O[C@H]5O[C@H](CO)[C@@H](O)[C@H](O)[C@H]5O)O[C@H](CO)[C@@H](O)[C@@H]4O)O[C@H](CO)[C@@H](O)[C@@H]3O)O[C@H](CO)[C@@H](O)[C@@H]2O)[C@@H](O)[C@@H]1O [1F-Fructofuranosylnystose] | -1.2 | 

Row | Compound | OC43 Inhibition rate [%] | OC43 Inhibition rate (OC43 Inhibition rate, 24 h) [%]
17 | CC1(C)C=Cc2c(-c3c4c(c5ccccc5c3O)OC(C)(C)C=C4)c(O)c3ccccc3c2O1 [Tectol] | 6.7 | 
18 | O=c1c(O)c(-c2ccccc2)oc2cc(O)cc(O)c12 [Galangin] | 13.3 | 
19 | O=C(O)Cc1cccnc1 [3-Pyridineacetic acid] | -1 | 
20 | O=C1C[C@@H](c2ccc(O[C@@H]3O[C@H](CO)[C@@H](O)[C@H](O)[C@H]3O)cc2)Oc2cc(O[C@@H]3OC[C@](O)(CO)[C@H]3O)ccc21 [Liguiritigenin-7-O-D-apiosyl-4'-O-D-glucoside] | 1.2 | 
21 | CC1(C)CC[C@]2(C(=O)O[C@@H]3O[C@H](CO)[C@@H](O)[C@H](O)[C@H]3O)CC[C@]3(C)C(=CC[C@@H]4[C@@]5(C)CC[C@H](O[C@@H]6O[C@H](C(=O)O)[C@@H](O)[C@H](O[C@@H]7OC[C@@H](O)[C@H](O)[C@H]7O)[C@H]6O)C(C)(C)[C@@H]5CC[C@]43C)[C@@H]2C1 [Momordin IIc] | -0.2 | 
22 | CC(=O)CC[C@@H](C)O[C@@H]1O[C@@H](C)[C@H](O)C[C@H]1O [Ascr#2] | 1.2 | 
23 | CC(=O)c1ccc2c(c1)C=CC(C)(C)O2 [Demethoxyencecalin] | 0.6 | 
24 | Nc1nc2c(nc(O)n2[C@@H]2O[C@H](CO)[C@@H](O)[C@H]2O)c(=O)[nH]1 [8-Hydroxyguanosine] | -0.9 | 
25 | CCCCC[C@H](O)CC(=O)CCc1ccc(O)c(OC)c1 [[6]-Gingerol] | -0.2 | 
26 | O=C(O)C[C@@H]1C(=O)O[C@H]2[C@@H]3OC(=O)c4cc(O)c(O)c(O)c4-c4c(cc(O)c(O)c4O)C(=O)OC[C@H]2O[C@@H](OC(=O)c2cc(O)c(O)c(O)c2)[C@@H]3OC(=O)c2cc(O)c(O)c3c2[C@H]1[C@H](O)C(=O)O3 [Chebulagic acid] | 1.9 | 
27 | C=C[C@H]1CN2CC[C@H]1C[C@@H]2[C@@H](O)c1ccnc2ccc(OC)cc12 [Quinidine hydrochloride monohydrate] |  | 1
28 | O=C(O)C1=CO[C@@H](O[C@@H]2O[C@H](CO)[C@@H](O)[C@H](O)[C@H]2O)[C@H]2[C@@H]1C=C[C@]2(O)CO [Monotropein] | 0.5 | 
29 | C[C@@H]1O[C@@H](O[C@H]2[C@H](OC(=O)[C@]34CCC(C)(C)C[C@H]3C3=CC[C@@H]5[C@@]6(C)C[C@H](O)[C@H](O[C@@H]7O[C@H](CO)[C@@H](O)[C@H](O)[C@H]7O)C(CO)(CO)[C@@H]6CC[C@@]5(C)[C@]3(C)C[C@H]4O)OC[C@H](O)[C@@H]2O)[C@H](O)[C@H](O)[C@H]1O[C@@H]1OC[C@@H](O)[C@H](O[C@@H]2OC[C@](O)(CO)[C@H]2O)[C@H]1O [Platycodin D] | 11.1 | 
30 | CCCCCCCCCCCCCCC(=O)O [Pentadecanoic acid] | -0.1 | 
31 | COc1ccc(CCO[C@@H]2O[C@H](CO[C@@H]3OC[C@H](O)[C@H](O)[C@H]3O)[C@@H](OC(=O)/C=C/c3ccc(O)c(OC)c3)[C@H](O[C@@H]3O[C@@H](C)[C@H](O)[C@@H](O)[C@H]3O)[C@H]2O)cc1O [Angoroside C] | 0.2 | 

Two of these compounds in another layout.
CC1(C)C=Cc2c(-c3c4c(c5ccccc5c3O)OC(C)(C)C=C4)c(O)c3ccccc3c2O1 [Tectol]
  OC43 Inhibition rate [%]: 6.7
CC(=O)c1ccc2c(c1)C=CC(C)(C)O2 [Demethoxyencecalin]
  OC43 Inhibition rate [%]: 0.6
